The list shows only some results of the screen, not a fair sample: it gathers tests that were run many times, whatever their T/C, doses with no T/C, and many T/C values between a quarter and a half above the control. Other doses and runs of a compound stand elsewhere. T/C gives the treated animals as a percentage of the vehicle group. Some entries give survivors of the animals treated and no T/C: the source holds a T/C of zero for them, seemingly a mark for toxic or unscored doses. Some doses without a T/C left all or most animals alive at the check, yet need not have been tolerated: survival well below the control is almost never listed, so the zero probably covers shortened survival too. Survivors were counted at the toxicity check, usually on the fifth day, unless a day is given; later deaths do not show. Schedules are NCI's codes, read here as Q, the interval in days (D) or hours (H), X, the number of doses. For survival time, the PubChem record calls one and a half times the control and up active, and a quarter to a half above the control has no call in these data; cut-offs in other NCI protocols can differ.
Tested on: P388 leukemia ip, CD2F1 mice, survival T/C
Assay: NCI In Vivo Anticancer Drug Screen. Data for tumor model P388 Leukemia (intraperitoneal) in CD2F1 (CDF1) mice
Conditions: T/C endpoint: median survival time, higher T/C = longer survival

Cc1ccc[c]([Hg][Cl])c1N=Nc1ccccc1
survivor count (dose: 38.0 mg/kg/injection, schedule: Q01DX009 (ip), vehicle: saline with Tween-80): 1 of 6
survivor count (dose: 50.0 mg/kg/injection, schedule: Q01DX009 (ip), vehicle: saline with Tween-80): 0 of 6
survivor count (dose: 100.0 mg/kg/injection, schedule: Q01DX009 (ip), vehicle: saline with Tween-80): 0 of 6
survivor count (dose: 200.0 mg/kg/injection, schedule: Q01DX009 (ip), vehicle: saline with Tween-80): 5 of 6

O=C(c1cc2c(cc1[N+](=O)[O-])OCO2)N1CCc2ccccc21
T/C (dose: 12.5 mg/kg/injection, schedule: Q01DX009 (ip), vehicle: other): 130 % of control

N#Cc1ccccc1C#N
T/C (dose: 6.25 mg/kg/injection, schedule: Q04DX003 (ip), vehicle: saline with Tween-80): 125 % of control

COc1cc(C=Nc2cc(Br)cc(Br)c2)ccc1N(CCCl)CCCl
T/C (dose: 1.0 mg/kg/injection, schedule: Q01DX009 (ip), vehicle: saline with Tween-80): 130 % of control
T/C (dose: 1.25 mg/kg/injection, schedule: Q01DX009 (ip), vehicle: saline with Tween-80): 145 % of control
T/C (dose: 4.5 mg/kg/injection, schedule: Q04DX003 (ip), vehicle: other): 134 % of control

— PubChem BioAssay AID330 (DTP/NCI, 2004)
